# Experimental data: the supplement of paper PMC9135407
# “And” between values parts separate entries of the source, which are not always exact repeats. Equal entries are not always repeated. Structures can show the parent of a compound that is named as a salt. ± gives the standard deviation of the averaged measurements. Some of the results follow. Baselines shift from plate to plate; read single values as rough.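 Assay uses culture-activated primary human stellate myofibroblasts; lipid droplet recovery indicates inactivation. Measured: proportion of Hoechst-counted cells over a plate-specific Bodipy cutoff, duplicate wells, DMSO and nortriptyline as per-plate negative and positive controls. A hit scores, control-normalized, above the plate's top-tenth-percentile nortriptyline wells or ranks among its three best wells. Final well concentrations not reported.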
# System: primary human hepatic stellate cells (donor 1)
# Assay: percent Bodipy-positive cells; higher = more lipid droplet accumulation
# Settings: 48 h
# [1] = library stock concentration: 3.33 mM
# [2] = library stock concentration: 10 mM
# [3] = library stock concentration: 80 uM
# [4] = library stock concentration: 400 uM
# [5] = library stock concentration: 2 mM
# [6] = library stock concentration: 1 mM
structure (smiles),measurement,setting,value
CCCCCCCCCCOc1cc2c(O)c(C(=O)OCC)cnc2cc1OCC [Decoquinate],percent Bodipy-positive cells,library stock concentration: 4.8 mM,11.4 ± 7.3%
COc1ccc2c(c1)C(=O)N(CCc1ccc(S(=O)(=O)NC(=O)NC3CCCCC3)cc1)C(=O)C2(C)C [Gliquidone],percent Bodipy-positive cells,,7.59 ± 1.6%
C=CCc1ccc(O)c(-c2cc(CC=C)ccc2O)c1 [Magnolol],percent Bodipy-positive cells,[1],11.3 ± 9.7%
same,percent Bodipy-positive cells,[2],73.9 ± 14%
CC(=N)NCc1cccc(CN)c1 [1400W dihydrochloride],percent Bodipy-positive cells,[2],8.74 ± 4.8%
NS(=O)(=O)Cc1noc2ccccc12 [Zonisamide],percent Bodipy-positive cells,[1],25.24 ± 0.23%
same,percent Bodipy-positive cells,library stock concentration: 9.4 mM,7.92 ± 2.6%
CC(C)c1cccc(=O)c(O)c1 [Hinokitiol],percent Bodipy-positive cells,library stock concentration: 30.5 mM,38 ± 9.2%
CN(C)CCN(Cc1ccc(Cl)cc1)c1ccccn1 [Chloropyramine hydrochloride],percent Bodipy-positive cells,,34.5 ± 1%
CC(C[N+](C)(C)C)OC(N)=O (configuration not stated) [Urecholine],percent Bodipy-positive cells,[2],31.5 ± 6.4%
CC(C[N+](C)(C)C)OC(N)=O (configuration not stated) [Bethanechol chloride],percent Bodipy-positive cells,,7.71 ± 0.18%
same,percent Bodipy-positive cells,[1],6.04 ± 1.4%
COc1ccc(C[C@H](NC(=O)[C@H](C)NC(=O)CN2CCOCC2)C(=O)N[C@@H](Cc2ccccc2)C(=O)[C@@]2(C)CO2)cc1,percent Bodipy-positive cells,[1],96.1 ± 4.7%
same,percent Bodipy-positive cells,[2],99.29 ± 0.18%
O=C1C(Cl)=C(N2C(=O)CCC2=O)C(=O)c2ccccc21 [MEK Inhibitor II],percent Bodipy-positive cells,[1],40.4 ± 5.8%
CC(C)(C)c1ccc(S(=O)(=O)/C=C/C#N)cc1,percent Bodipy-positive cells,[2],98.1 ± 1.6%
Cc1ccc2nc(NCCN)c3ncc(C)n3c2c1,percent Bodipy-positive cells,[3],7.88 ± 4.8%
same,percent Bodipy-positive cells,[4],7.61 ± 0.32%
same,percent Bodipy-positive cells,[5],9.78 ± 7.7%
same,percent Bodipy-positive cells,[1],38 ± 7.7%
same,percent Bodipy-positive cells,[2],89.2% and 74.5%
N[C@@H](Cc1c[nH]cn1)C(=O)O [L-Histidine hydrochloride],percent Bodipy-positive cells,[2],35.6 ± 20%
CC(C)CCOc1ccc(NC(=S)Nc2ccc(OCCC(C)C)cc2)cc1 [Thiocarlide],percent Bodipy-positive cells,[6],12.4 ± 4%
Cc1ccc(Cl)cc1N(CC(=O)Nc1c(F)cccc1F)S(C)(=O)=O,percent Bodipy-positive cells,[1],38.9 ± 0.76%
same,percent Bodipy-positive cells,[2],45.2 ± 1.4%
COc1cc2c(cc1OC)-c1c/c(=N\c3c(C)cc(C)cc3C)n(C)c(=O)n1CC2 [Trequinsin],percent Bodipy-positive cells,library stock concentration: 4.9 mM,21 ± 3.7%
same,percent Bodipy-positive cells,library stock concentration: 12.3 mM,38.8 ± 9.4%
Cc1cccc(Nc2ccncc2S(=O)(=O)NC(=O)NC(C)C)c1 [Torsemide],percent Bodipy-positive cells,,10 ± 5.8%
same,percent Bodipy-positive cells,[2],39.8 ± 5.8%
Cc1cccc(Nc2ccncc2S(=O)(=O)NC(=O)NC(C)C)c1,percent Bodipy-positive cells,library stock concentration: 9.9 mM,7.71 ± 6.8%
CCCCC/C=C\C/C=C\C/C=C\C/C=C\CCCC(=O)NC[C@]1(C)CCC[C@]2(C)c3ccc(C(C)C)cc3CC[C@@H]12 [Arachidonic Acid Leelamide],percent Bodipy-positive cells,[6],7.62 ± 1.3%
COc1ccc(-c2nc3cc(F)ccc3s2)cc1OC,percent Bodipy-positive cells,[6],9.1 ± 0.76%
O=C(O)CCCC[C@@H]1CCSS1 [Thioctic acid],percent Bodipy-positive cells,[2],34.9 ± 2.4%
C=N[C@@H](C(=O)N[C@@H]1C(=O)N2[C@@H]1SC(C)(C)[C@@H]2C(=O)O)c1ccccc1 [Metampicillin sodium salt],percent Bodipy-positive cells,,27 ± 14%
CC[N+](CC)(CC(=O)Nc1c(C)cccc1C)Cc1ccccc1 [Denatonium benzoate],percent Bodipy-positive cells,,9.64 ± 3%
same,percent Bodipy-positive cells,library stock concentration: 4.5 mM,11.9 ± 0.36%
COc1cc(NS(=O)(=O)c2ccc(N)cc2)nc(OC)n1 [Sulfadimethoxine],percent Bodipy-positive cells,,4.49 ± 2.3%
same,percent Bodipy-positive cells,library stock concentration: 6.4 mM,6.3% and 15.3%
same,percent Bodipy-positive cells,[2],17.33 ± 0.032%
COc1cc(NS(=O)(=O)c2ccc(N)cc2)nc(OC)n1 [Sulphadimethoxine],percent Bodipy-positive cells,[1],6.32 ± 2.1%
same,percent Bodipy-positive cells,[2],14.7 ± 5.2%
COc1cc2ccc(=O)oc2cc1O [Scopoletin],percent Bodipy-positive cells,,6.31 ± 2.2%
same,percent Bodipy-positive cells,[2],35.7 ± 22%
CC1(C)O[C@@H]2[C@@H](CO[C@@]3(COS(N)(=O)=O)OC(C)(C)O[C@@H]23)O1 [Topiramate],percent Bodipy-positive cells,[1],35.5 ± 4.1%
same,percent Bodipy-positive cells,library stock concentration: 5.9 mM,10.8 ± 4%
CC1(C)O[C@@H]2[C@@H](CO[C@@]3(COS(N)(=O)=O)OC(C)(C)O[C@@H]23)O1,percent Bodipy-positive cells,[2],6.21 ± 0.41%
CN(C)CCC=C1c2ccccc2C=Cc2ccccc21.Cl [Cyclobenzaprine HCl],percent Bodipy-positive cells,[1],64.2 ± 5.8%
CN(C)c1cc(NC(=O)CNC(C)(C)C)c(O)c2c1C[C@H]1C[C@H]3[C@H](N(C)C)C(O)=C(C(N)=O)C(=O)[C@@]3(O)C(O)=C1C2=O,percent Bodipy-positive cells,[2],32.2 ± 11%
CCNc1nc(Nc2cc(F)c(C(=O)N3CCOCC3)cc2OC)ncc1C(F)(F)F,percent Bodipy-positive cells,[3],12 ± 4.3%
same,percent Bodipy-positive cells,[4],10.7 ± 2.4%
same,percent Bodipy-positive cells,[5],10.1 ± 0.81%
same,percent Bodipy-positive cells,[1],27.5 ± 0.56%
NCCC(=O)NCCc1c[nH]cn1 [Carcinine],percent Bodipy-positive cells,,23.4 ± 1.1%
O=C1Nc2ccc(I)cc2/C1=C/c1cc(Br)c(O)c(Br)c1,percent Bodipy-positive cells,[3],10.6 ± 5.9%
same,percent Bodipy-positive cells,[4],11.4 ± 2.6%
same,percent Bodipy-positive cells,[5],5.98 ± 0.066%
same,percent Bodipy-positive cells,library stock concentration: 9.6 mM,24.4 ± 1.7%
same,percent Bodipy-positive cells,[2],25.4% and 9.82% and 7.75%
O=c1onc2cnc3ccccc3n12,percent Bodipy-positive cells,[2],69.9 ± 8.4%
O=C1N=C(O)NC1(c1ccccc1)c1ccccc1 [Phenytoin sodium],percent Bodipy-positive cells,[1],21.3 ± 10%
same,percent Bodipy-positive cells,library stock concentration: 7.3 mM,4.82 ± 0.67%
same,percent Bodipy-positive cells,[2],15.4% and 18.5% and 24%

# A second format for part of the listing above.
structure (smiles)	measurement	setting	value
N[C@@H](Cc1c[nH]cn1)C(=O)O [L-Histidine hydrochloride]	percent Bodipy-positive cells	[2]	35.6 ± 20%
O=C1Nc2ccc(I)cc2/C1=C/c1cc(Br)c(O)c(Br)c1	percent Bodipy-positive cells	[5]	5.98 ± 0.066%
O=C1N=C(O)NC1(c1ccccc1)c1ccccc1 [Phenytoin sodium]	percent Bodipy-positive cells	library stock concentration: 7.3 mM	4.82 ± 0.67%
